Taken from: PubChem BioAssay AID686938 (Drosophila RNAi Screening Center, 2013)

- Test: 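Looking for CRAC channel components and the factors controlling them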 (primary screen)
- Cell system: Drosophila S2R+ cells
- Knock-down reagent: long dsRNA against Drosophila genes, about 0.25 µg dsRNA per well, roughly 10,000 cells
- Time to read-out: 5 days of knock-down before the calcium assay
- Challenge: thapsigargin (SERCA pump blocker) to empty calcium stores; entry signal taken 4 min after adding it
- Measured: 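Per-well fluo-4 fluorescence in two replicates, unnormalised, measured in resting cells and 4 min after store depletion by the SERCA blocker thapsigargin; ratio of the two present in few wells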
- Reading the numbers: calcium entry signal: higher = stronger calcium signal after store depletion; resting calcium signal: higher = higher resting calcium signal
- Active means: 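Hit if the duplicate-averaged plate z-score for entry over resting signal is under −3; wells with weak total dye signal (Fmax z < −2) or more than 5 off-targets removed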
- Calls: active = strongly reduced calcium entry; inactive = no strong reduction
In all, the deposit lists about 23,000 reagents; shown is an unselected part of those with a known target gene and a result. In the full data, 75 (0.33%) were called active. 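Raw plate signals without normalisation; calls rest on plate z-scores that were not deposited; ratio present for only 364 wells.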 The numbers tell different reagents against one gene apart. Names joined by + are all predicted targets of the reagent. No sequences are given here. Not given: the dose of the treatment.

predicted target,dsRNA no.,"calcium entry signal, replicate 1 (fluorescence units)","calcium entry signal, replicate 2 (fluorescence units)","resting calcium signal, replicate 1 (fluorescence units)","resting calcium signal, replicate 2 (fluorescence units)",call
mats,1,4.60e7,3.75e7,2.63e7,1.88e7,inactive
mats,2,3.65e7,3.46e7,1.72e7,1.61e7,inactive
CG2006 + Spase12,1,3.22e7,4.05e7,1.66e7,1.75e7,inactive
CG15126,1,5.50e7,4.42e7,2.40e7,2.12e7,inactive
Cht7,1,3.85e7,2.67e7,2.59e7,1.09e7,inactive
Cht7,2,3.81e7,4.11e7,2.15e7,2.08e7,inactive
CR17024,1,4.62e7,3.15e7,1.98e7,1.46e7,inactive
Gr59a,1,3.33e7,3.63e7,1.90e7,1.58e7,inactive
mms4,1,4.91e7,3.99e7,2.37e7,1.72e7,inactive
CG17784,1,3.77e7,5.73e7,2.07e7,2.24e7,inactive
me31B,1,3.28e7,,2.16e7,,inactive
CG2617,1,5.07e7,5.95e7,2.51e7,2.52e7,inactive
CG1542,1,1.83e7,1.36e7,1.15e7,8.63e6,inactive
CG7945,1,4.07e7,4.57e7,1.88e7,3.23e7,inactive
Pomp,1,8.11e6,,6.69e6,,inactive
MAPk-Ak2,1,3.36e7,4.18e7,1.49e7,1.83e7,inactive
CG12134,1,2.47e7,2.28e7,1.22e7,1.12e7,inactive
sbb,1,2.68e7,6.13e7,1.35e7,2.88e7,inactive
sbb,2,4.28e7,4.47e7,1.89e7,1.99e7,inactive
Nnf1a,1,1.95e7,3.21e7,1.01e7,1.42e7,inactive
Sp212,1,2.88e7,2.72e7,1.64e7,1.21e7,inactive
Cds,1,4.97e7,4.54e7,2.94e7,1.97e7,inactive
Tbce,1,3.54e7,,1.67e7,,inactive
CR31427,1,4.95e7,3.44e7,2.39e7,1.43e7,inactive

Next part; the last 2 above are carried over.
predicted target,dsRNA no.,"calcium entry signal, replicate 1 (fluorescence units)","calcium entry signal, replicate 2 (fluorescence units)","resting calcium signal, replicate 1 (fluorescence units)","resting calcium signal, replicate 2 (fluorescence units)",call
Tbce,1,3.54e7,,1.67e7,,inactive
CR31427,1,4.95e7,3.44e7,2.39e7,1.43e7,inactive
Pis,1,2.83e7,3.33e7,1.51e7,1.49e7,inactive
santa-maria,1,3.69e7,4.51e7,1.86e7,1.91e7,inactive
santa-maria,2,3.75e7,,2.33e7,,inactive
PGRP-LD + Cralbp + Pmi,1,3.25e7,4.79e7,1.60e7,1.98e7,inactive
cGlr2,1,1.75e7,2.77e7,1.09e7,1.39e7,inactive
betaTub56D,1,2.93e7,2.62e7,1.95e7,1.65e7,active
CG30324,1,4.13e7,3.22e7,2.52e7,1.54e7,inactive
CG14853,1,3.07e7,4.32e7,1.59e7,2.15e7,inactive
CG14853,2,4.78e7,3.27e7,2.61e7,1.63e7,inactive
cmpy,1,2.82e7,5.12e7,1.30e7,2.17e7,inactive
eIF5,1,2.97e7,3.21e7,1.72e7,1.69e7,inactive
Cdc42,1,3.64e7,3.18e7,1.68e7,1.24e7,inactive
CG31949,1,2.79e7,2.84e7,1.49e7,1.32e7,inactive
Glt,1,4.75e7,,2.17e7,,inactive
Rack1,1,3.29e7,3.74e7,1.30e7,1.58e7,inactive
snf,1,1.91e7,2.95e7,9.46e6,1.42e7,inactive
